Data as given in PubChem BioAssay AID1259285 (Sanger Institute, 2017).

Aim: 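Kinase knock-downs that reduce colorectal cancer cell viability or act with drugs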 (primary screen)
Cell system: human HCC56 colorectal cancer cells
Knock-down reagent: siRNA pool against human genes
Conditions: DMSO vehicle, or anchor drug BYL719 at 1 µM, cetuximab at 5 µg/ml, or trametinib at 10 nM
Read-out: 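Replicate-averaged viability relative to non-targeting siRNA, expressed as a robust z-score from controls, plus a synergy score for each of three anchor drugs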
Reading the numbers: viability robust z-score, no drug: higher = more viable cells, weaker knock-down effect; viability vs non-targeting pool, no drug: higher = more viable cells; synergy score with BYL719: higher = stronger combined killing with BYL719; synergy score with cetuximab: higher = stronger combined killing with cetuximab; synergy score with trametinib: higher = stronger combined killing with trametinib
Call rule: 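Essential when the drug-free viability robust z-score falls below -3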
Calls: active = essential without drug; inactive = no change without drug
The deposit covers 794 reagents; this is an unselected part. Over the whole deposit, 20 (2.5%) got an active call. 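Calls rest on the drug-free arm alone and ignore synergy scores; viability ratios seem to be capped at 1.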 Reagents against one gene are numbered here. The record does not give: the amount of reagent, the time to read-out.

target	reagent no.	viability robust z-score, no drug	viability vs non-targeting pool, no drug	synergy score with BYL719	synergy score with cetuximab	synergy score with trametinib	call
NRAS	1	0.458	1	-0.162	-0.142	-0.0247	inactive
NTRK3	1	0.458	1	-0.162	-0.142	-0.187	inactive
FER	1	0.458	1	-0.162	-0.142	0.000658	inactive
TRIB2	1	0.458	1	-0.0277	-0.0426	0.105	inactive
IKBKE	1	0.337	0.99	0.0384	-0.0238	-0.061	inactive
MAGI1	1	0.458	1	-0.0557	-0.142	-0.0708	inactive
PRKX	1	0.458	1	-0.162	-0.142	-0.00362	inactive
RPS6KA1	1	0.458	1	-0.0964	-0.142	0.0197	inactive
PLK3	1	0.458	1	-0.0666	-0.142	-0.066	inactive
STK38	1	0.458	1	0.0688	-0.0601	0.154	inactive
GUCY2EP	1	0.458	1	0.107	0.0357	0.127	inactive
STK16	1	0.458	1	0.0195	0.0984	0.0349	inactive
SMAD2	1	-4.16	0.604	-0.114	-0.095	-0.186	active
AMHR2	1	-2.43	0.752	-0.145	0.00631	-0.123	inactive
PRKD2	1	-3.1	0.694	-0.0556	-0.0801	0.0271	active
PNCK	1	0.458	1	-0.115	-0.13	0.00541	inactive
BCKDK	1	0.458	1	-0.104	-0.139	-0.0477	inactive
TNIK	1	0.458	1	-0.0278	-0.0788	0.0627	inactive
ADCK2	1	-2.9	0.712	-0.0615	-0.0357	-0.1	inactive
GRK5	1	0.458	1	0.118	-0.0523	-0.0152	inactive
DGKH	1	0.144	0.973	0.021	0.0163	0.0749	inactive
CDK11B	1	0.458	1	-0.162	-0.142	-0.0328	inactive
MAPK8	1	0.458	1	-0.133	-0.142	-0.0815	inactive

An excerpt of the results above, for reference:
target	reagent no.	viability robust z-score, no drug	viability vs non-targeting pool, no drug	synergy score with BYL719	synergy score with cetuximab	synergy score with trametinib	call
STK16	1	0.458	1	0.0195	0.0984	0.0349	inactive
SMAD2	1	-4.16	0.604	-0.114	-0.095	-0.186	active
AMHR2	1	-2.43	0.752	-0.145	0.00631	-0.123	inactive
PRKD2	1	-3.1	0.694	-0.0556	-0.0801	0.0271	active
PNCK	1	0.458	1	-0.115	-0.13	0.00541	inactive
BCKDK	1	0.458	1	-0.104	-0.139	-0.0477	inactive
TNIK	1	0.458	1	-0.0278	-0.0788	0.0627	inactive

Further entries:
target	reagent no.	viability robust z-score, no drug	viability vs non-targeting pool, no drug	synergy score with BYL719	synergy score with cetuximab	synergy score with trametinib	call
PRKD1	1	0.458	1	-0.0934	-0.0527	-0.0632	inactive
MYLK3	1	0.458	1	-0.162	-0.142	-0.0342	inactive
TBX3	1	0.458	1	-0.162	-0.142	-0.0373	inactive
GRK7	1	0.458	1	-0.0576	0.106	0.09	inactive
MLKL	1	0.458	1	-0.162	-0.131	-0.139	inactive
ABL2	1	0.458	1	-0.162	-0.142	0.0133	inactive
TWF1	1	0.458	1	-0.162	-0.142	-0.245	inactive
AURKC	1	0.458	1	-0.162	-0.135	-0.0299	inactive
PRKAA2	1	0.458	1	0.00487	-0.00604	0.168	inactive
EPHA3	1	-2.61	0.736	-0.0133	-0.11	0.0477	inactive
SPHK1	1	0.458	1	0.0312	-0.0415	0.0493	inactive
ITPKA	1	0.458	1	0.101	0.123	0.151	inactive
BRWD1	1	0.458	1	-0.097	-0.027	0.0416	inactive
PKN2	1	-0.0418	0.957	0.0535	0.0437	0.129	inactive
PRPS1	1	-0.112	0.951	0.11	0.0291	0.0879	inactive
RIPK3	1	0.455	1	-0.0427	0.0215	0.0977	inactive
SPHK2	1	0.458	1	-0.0382	0.00676	-0.0212	inactive
PSKH1	1	0.458	1	-0.162	-0.142	-0.151	inactive
EFNA4	1	0.458	1	-0.0056	-0.0841	0.0119	inactive
ILK	1	0.458	1	-0.133	-0.142	-0.154	inactive
ILK	2	0.458	1	0.0322	0.0696	0.0918	inactive
TK2	1	0.458	1	-0.162	-0.142	-0.1	inactive
SGK1	1	0.458	1	-0.162	-0.142	-0.146	inactive
TSSK1B	1	0.374	0.993	-0.0939	-0.0444	0.0814	inactive
MAST4	1	0.458	1	-0.162	-0.142	-0.0267	inactive
EFNA3	1	0.458	1	-0.078	-0.142	-0.0611	inactive
FGR	1	0.458	1	-0.151	-0.142	-0.00651	inactive
